Experimental data taken from patent publication US20110014656A1.
No constants are given. Whether binding was seen depends on the method and setting. Some entries that bind do so weakly or less than the wild type.

Experiments:
Details in all cases: remark: other sources report otherwise
[1] = target: T1, human IL-17 receptor (IL-17RA) on transfected cells (human), Q96F46; experiment: binding curve fits to the experiments of Table 7, receptor on transfected cells
[2] = target: T1, human IL-17 receptor (IL-17RA) on …; experiment: FACS competition, unlabeled vs biotinylated cytokine on BHK cells
[3] = target: T1, human IL-17 receptor (IL-17RA) on …; experiment: FACS, mean fluorescence over a range of cytokine concentrations on BHK transfectants; FACS, mean fluorescence over a range of cytokine concentrations
[4] = target: T1, human IL-17 receptor (IL-17RA) on …; experiment: FACS, biotinylated cytokine + SA-PE on transfected BHK cells; FACS, biotinylated IL-17F + SA-PE on IL-17R-transfected BHK cells, on ice
[5] = target: T1, human IL-17 receptor (IL-17RA) on …; experiment: saturation binding, 125I-cytokine on BHK cells
[6] = target: T1, human IL-17 receptor (IL-17RA) on …; experiment: FACS, biotinylated cytokine on stably transfected BHK cells; FACS, biotinylated hIL-17F on stably hIL-17RA-transfected BHK cells
[7] = target: T1, human IL-17 receptor (IL-17RA) on …; experiment: FACS competition, unlabeled vs biotinylated cytokine on BHK cells; FACS competition, unlabeled vs biotinylated cytokine; binding specific but of low avidity

Measured: binding

B1: human IL-17F, Q96PD4 31-163 (ligand)
chain: RKIPKVGHTFFQKPESCPPVPGGSMKLDIGIINENQRVSMSRNIESRSTSPWNYTVTWDPNRYPSEVVQAQCRNLGCINAQGKEDISMNSVPIQQETLVVRRKHQGCSVSFQLEKVLVTVGCTCVTPVIHHVQ
binds: all assays above
